Test system: E. coli 8–8
Assay: microbe, parasite or virus in culture
Assay type: cell-based
Settings: Escherichia coli; Mueller Hinton broth, 50 μL of 1 × 10^6 CFU/mL + 50 μL sample, 37 °C, 16–20 h; three independent replicates, each in triplicate; read-out: minimum inhibitory concentration (MIC) E. coli 8–8
Description: E. coli 8–8, A. baumannii 2982, and S. aureus 13–1 were procured from the Bioresource Collection and Research Center (BCRC), Taiwan. NDM-1-positive E. coli BAA 2452 was procured from ATCC. All strains were cultured in Mueller Hinton broth (MHB). The concentration of bacteria was identified by the absorbance at OD600. The colony forming units (CFU) corresponding to different OD600 values were identified by plating on the Mueller Hinton agar (MHA) plate.
Antibacterial analysis was performed according to a standard protocol.[32] Overnight cultures of test bacteria were prepared and freshly subcultured. Briefly, 50 μL of 1 × 10^6 CFU/mL bacterial cells was treated with 50 μL of peptide or conjugate at different concentrations in a 96-well plate. The plates were incubated at 37 °C for 16–20 h. The lowest concentration of peptide/conjugate showing no growth was considered the minimum inhibitory concentration (MIC). To identify the MIC (MBC), 5 μL of incubated suspensions from growth-free wells was plated onto MHA and incubated overnight at 37 °C. The lowest concentration of peptide/conjugate showing no growth on the MHA plate was considered to be the MBC. The experiments were performed in three independent replicates, each in triplicate.

Compound: C[C@@H](O)[C@H]1C(=O)N2C(C(=O)O)=C(S[C@@H]3CN[C@H](C(=O)N(C)C)C3)[C@H](C)[C@H]12 [Meropenem]
- MIC: < 0.25 µM
